Source: article doi:10.1101/2025.06.12.659263
Where two headings read alike, the source gives them in different places. No constants are given. Whether binding was seen depends on the method and setting. Binding seen in cells or lysates may run through a third protein. Some results given as binding are weak or reduced against the parent protein; the word gives no strength.

The chains behind the UniProt entries cited, without tags or fusion partners. Residues count along the entry.
UniProt P23201, residues 1-124: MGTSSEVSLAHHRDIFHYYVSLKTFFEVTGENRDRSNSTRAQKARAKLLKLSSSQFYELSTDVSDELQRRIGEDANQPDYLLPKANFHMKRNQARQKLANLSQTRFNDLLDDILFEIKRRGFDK

Legend:
SHD1CRU (S. cerevisiae) [1] = molecular target: SHD1CRU (S. cerevisiae) (UniProt P23201); experiment: split reporter
SHD1CRU (S. cerevisiae) [2] = molecular target: SHD1CRU (S. cerevisiae) (UniProt P23201); experiment: split reporter; remark: listed apart in the source

Row | Binder | binding (SHD1CRU (S. cerevisiae) [1]) | binding (SHD1CRU (S. cerevisiae) [2])
1 | GQASPSEHDGNLSVIDLYGDEVESQRAEGE (peptide, UniProt P48566 71-100) [Nub-Msb3_(71-100)] | binds | –
2 | DTVSSFNEDDANYSVLDLYDDDDEGDDSST (peptide, UniProt Q12317 21-50) [Nub-Msb4_(21-50)] | binds | –
3 | Nub-Msb3 D0A (protein, UniProt P48566 1-633) MQNDQQRFSLQNRTVLAHPYKRLGGAFTVKSPSVPNFHDKMHSDHSSSDSALVNGSFRANDHRSVEPSCLGQASPSEHDGNLSVIALYGDEVESQRAEGEDDDDNNGDNGNEDLEEVHSDDLDLVPDDDNRQRVELEGAASATSANSNGINNTHFDRYGFKKQNNYISEAEYDKWWVEYSQYCVRRKHKWQLLLEKSGLPVTDDSPSRFPSKSERLKRYVRKGIPAEWRGNAWWHFARGQEKLNKNKGVYSQLLRKMKQIKKQNPNEKQVQDLDIIERDLNRTFPDNIHFQSSLHNKEGPPIIKSLRRVLVAFSLYNPKIGYCQSMNFLAGLLLLFLDEERAFWMLVIITSRYLPGVHNINLEGVNIDQGVLMLCVKEYIPEVWSYIKPSIDHHQKNNKTFSPSNKKVLFNMQKNEFLYRLPPITLCTASWFMSCFVGVVPIETTLRIWDCLFYEESHFLFKVSLAVLKLSEHDLSKIKPRNNSLNYSWGSNLNQRGGSMGQEDSDMEIFQVIQTFPKTLLNPNEIFEKIIFKRRFNLNRLDQDEIDRCRKFVAAQRLKFKTYGELLGNSTSEADLPINDNTDNKGIHITSDAVNEALSSEVYGFKKSLAGVHWNNSIKEKVKQMRKKKDKGD | binds | –
4 | Nub-Msb3 L-4Y (protein, UniProt P48566 1-633) MQNDQQRFSLQNRTVLAHPYKRLGGAFTVKSPSVPNFHDKMHSDHSSSDSALVNGSFRANDHRSVEPSCLGQASPSEHDGNYSVIDLYGDEVESQRAEGEDDDDNNGDNGNEDLEEVHSDDLDLVPDDDNRQRVELEGAASATSANSNGINNTHFDRYGFKKQNNYISEAEYDKWWVEYSQYCVRRKHKWQLLLEKSGLPVTDDSPSRFPSKSERLKRYVRKGIPAEWRGNAWWHFARGQEKLNKNKGVYSQLLRKMKQIKKQNPNEKQVQDLDIIERDLNRTFPDNIHFQSSLHNKEGPPIIKSLRRVLVAFSLYNPKIGYCQSMNFLAGLLLLFLDEERAFWMLVIITSRYLPGVHNINLEGVNIDQGVLMLCVKEYIPEVWSYIKPSIDHHQKNNKTFSPSNKKVLFNMQKNEFLYRLPPITLCTASWFMSCFVGVVPIETTLRIWDCLFYEESHFLFKVSLAVLKLSEHDLSKIKPRNNSLNYSWGSNLNQRGGSMGQEDSDMEIFQVIQTFPKTLLNPNEIFEKIIFKRRFNLNRLDQDEIDRCRKFVAAQRLKFKTYGELLGNSTSEADLPINDNTDNKGIHITSDAVNEALSSEVYGFKKSLAGVHWNNSIKEKVKQMRKKKDKGD | binds | –
5 | Nub-Msb3 +1A (protein, UniProt P48566 1-633) MQNDQQRFSLQNRTVLAHPYKRLGGAFTVKSPSVPNFHDKMHSDHSSSDSALVNGSFRANDHRSVEPSCLGQASPSEHDGNLSVIDAYGDEVESQRAEGEDDDDNNGDNGNEDLEEVHSDDLDLVPDDDNRQRVELEGAASATSANSNGINNTHFDRYGFKKQNNYISEAEYDKWWVEYSQYCVRRKHKWQLLLEKSGLPVTDDSPSRFPSKSERLKRYVRKGIPAEWRGNAWWHFARGQEKLNKNKGVYSQLLRKMKQIKKQNPNEKQVQDLDIIERDLNRTFPDNIHFQSSLHNKEGPPIIKSLRRVLVAFSLYNPKIGYCQSMNFLAGLLLLFLDEERAFWMLVIITSRYLPGVHNINLEGVNIDQGVLMLCVKEYIPEVWSYIKPSIDHHQKNNKTFSPSNKKVLFNMQKNEFLYRLPPITLCTASWFMSCFVGVVPIETTLRIWDCLFYEESHFLFKVSLAVLKLSEHDLSKIKPRNNSLNYSWGSNLNQRGGSMGQEDSDMEIFQVIQTFPKTLLNPNEIFEKIIFKRRFNLNRLDQDEIDRCRKFVAAQRLKFKTYGELLGNSTSEADLPINDNTDNKGIHITSDAVNEALSSEVYGFKKSLAGVHWNNSIKEKVKQMRKKKDKGD | binds | –
6 | Nub-Msb4 D0A (protein, UniProt Q12317 1-492) MIMSSTMSTEAALVPNESVFDTVSSFNEDDANYSVLALYDDDDEGDDSSTVERKEILTTRELEKAKAFTSLIMADPENFDRYGFSKKGYFISQEEYDKWWTEYNRYTERRKKKWENFLLKNKIELHNDNPLVYPARTDELSKFVRKGIPAEWRGNAWWYFAGGQRQLDANVGVYDRLKSDCREGAVSGKDMEAIERDLYRTFPDNIHFHKESFQNGEPAIIRSLRRVLMAFSVYDKTIGYCQSMNFLVGLLLLFMEEEKAFWMLVIITGKYLPGVYESDLEGANVDQGVLVLCIKEYLPEIWSHIESSYMNGNGSTDQISGPASGEEYLCRLPTLTLCTASWFMSCFVGVVPIETTLRIWDCLFYEESHFLFKVALGILKLSESEFLESKSQKLFRQYSSYTFGGSNDSDSTFKRLKNKIKTQEEADMEILQVIQNFPKRLLNPNDIFEKVLMKKKVALNGITQEKIDRGREYVAMARNRQRASSRPKERRK | binds | –
7 | Mkk1_(143–202), the N-terminal extension of Mkk1_(143–202)SHD1CRU (domain or fragment, UniProt P32490 143-202) ASPFSHTNTSSPYLRNDLSNSVGSDFSNLISAYEQSSSPIKSSSQPKSSSESYIDLNSVR | binds weakly | –
8 | Nub-Mkk1 with Ser0 substituted by Asp (protein, UniProt P32490 1-508) MASLFRPPESAKCNPNSPRLKLPLLRNNQVDENNIYLTSNGSSTTAYSSHTPEPLTSSTSTLFSQTRLHPSDSSMTLNTMKKRPAPPSLPSLSINSQSKCKTLPELVPIADVSDGKHDLGLKQRVIAENELSGNSDLTPSSMASPFSHTNTSSPYLRNDLSNSVGSDFSNLIDAYEQSSSPIKSSSQPKSSSESYIDLNSVRDVDQLDENGWKYANLKDRIETLGILGEGAGGSVSKCKLKNGSKIFALKVINTLNTDPEYQKQIFRELQFNRSFQSEYIVRYYGMFTDDENSSIYIAMEYMGGRSLDAIYKNLLERGGRISEKVLGKIAEAVLRGLSYLHEKKVIHRDIKPQNILLNENGQVKLCDFGVSGEAVNSLATTFTGTSFYMAPERIQGQPYSVTSDVWSLGLTILEVANGKFPCSSEKMAANIAPFELLMWILTFTPELKDEPESNIIWSPSFKSFIDYCLKKDSRERPSPRQMINHPWIKGQMKKNVNMEKFVRKCWKD | binds | –
9 | Dse3_(181-240), the N-terminal extension of Dse3_(181-240)-SHD1CRU (domain or fragment, UniProt Q08729 181-240) SLMQTQTQDCCRKNKYGKSGSEILFDEILSAYENVSTSDSTALNSEIDRIIDICASKQIA | binds | –
10 | Nub-Msb3_(Δ84-88) (protein, UniProt P48566) MQNDQQRFSLQNRTVLAHPYKRLGGAFTVKSPSVPNFHDKMHSDHSSSDSALVNGSFRANDHRSVEPSCLGQASPSEHDGNLSGDEVESQRAEGEDDDDNNGDNGNEDLEEVHSDDLDLVPDDDNRQRVELEGAASATSANSNGINNTHFDRYGFKKQNNYISEAEYDKWWVEYSQYCVRRKHKWQLLLEKSGLPVTDDSPSRFPSKSERLKRYVRKGIPAEWRGNAWWHFARGQEKLNKNKGVYSQLLRKMKQIKKQNPNEKQVQDLDIIERDLNRTFPDNIHFQSSLHNKEGPPIIKSLRRVLVAFSLYNPKIGYCQSMNFLAGLLLLFLDEERAFWMLVIITSRYLPGVHNINLEGVNIDQGVLMLCVKEYIPEVWSYIKPSIDHHQKNNKTFSPSNKKVLFNMQKNEFLYRLPPITLCTASWFMSCFVGVVPIETTLRIWDCLFYEESHFLFKVSLAVLKLSEHDLSKIKPRNNSLNYSWGSNLNQRGGSMGQEDSDMEIFQVIQTFPKTLLNPNEIFEKIIFKRRFNLNRLDQDEIDRCRKFVAAQRLKFKTYGELLGNSTSEADLPINDNTDNKGIHITSDAVNEALSSEVYGFKKSLAGVHWNNSIKEKVKQMRKKKDKGD | – | no binding
11 | Nub-Mkk1Δ171–175 (protein, UniProt P32490) MASLFRPPESAKCNPNSPRLKLPLLRNNQVDENNIYLTSNGSSTTAYSSHTPEPLTSSTSTLFSQTRLHPSDSSMTLNTMKKRPAPPSLPSLSINSQSKCKTLPELVPIADVSDGKHDLGLKQRVIAENELSGNSDLTPSSMASPFSHTNTSSPYLRNDLSNSVGSDFSNEQSSSPIKSSSQPKSSSESYIDLNSVRDVDQLDENGWKYANLKDRIETLGILGEGAGGSVSKCKLKNGSKIFALKVINTLNTDPEYQKQIFRELQFNRSFQSEYIVRYYGMFTDDENSSIYIAMEYMGGRSLDAIYKNLLERGGRISEKVLGKIAEAVLRGLSYLHEKKVIHRDIKPQNILLNENGQVKLCDFGVSGEAVNSLATTFTGTSFYMAPERIQGQPYSVTSDVWSLGLTILEVANGKFPCSSEKMAANIAPFELLMWILTFTPELKDEPESNIIWSPSFKSFIDYCLKKDSRERPSPRQMINHPWIKGQMKKNVNMEKFVRKCWKD | no binding | –
12 | SSLSQSPCVSSSSSLSTPCIIDAYSNNFGLSPSSTN (peptide, UniProt P06784 100-135) [Nub-Ste7_(100-135)] | no binding | –
13 | Nub-Msb3 Y+2A (protein, UniProt P48566 1-633) MQNDQQRFSLQNRTVLAHPYKRLGGAFTVKSPSVPNFHDKMHSDHSSSDSALVNGSFRANDHRSVEPSCLGQASPSEHDGNLSVIDLAGDEVESQRAEGEDDDDNNGDNGNEDLEEVHSDDLDLVPDDDNRQRVELEGAASATSANSNGINNTHFDRYGFKKQNNYISEAEYDKWWVEYSQYCVRRKHKWQLLLEKSGLPVTDDSPSRFPSKSERLKRYVRKGIPAEWRGNAWWHFARGQEKLNKNKGVYSQLLRKMKQIKKQNPNEKQVQDLDIIERDLNRTFPDNIHFQSSLHNKEGPPIIKSLRRVLVAFSLYNPKIGYCQSMNFLAGLLLLFLDEERAFWMLVIITSRYLPGVHNINLEGVNIDQGVLMLCVKEYIPEVWSYIKPSIDHHQKNNKTFSPSNKKVLFNMQKNEFLYRLPPITLCTASWFMSCFVGVVPIETTLRIWDCLFYEESHFLFKVSLAVLKLSEHDLSKIKPRNNSLNYSWGSNLNQRGGSMGQEDSDMEIFQVIQTFPKTLLNPNEIFEKIIFKRRFNLNRLDQDEIDRCRKFVAAQRLKFKTYGELLGNSTSEADLPINDNTDNKGIHITSDAVNEALSSEVYGFKKSLAGVHWNNSIKEKVKQMRKKKDKGD | no binding | –
14 | Nub-Msb4 Y+2A (protein, UniProt Q12317 1-492) MIMSSTMSTEAALVPNESVFDTVSSFNEDDANYSVLDLADDDDEGDDSSTVERKEILTTRELEKAKAFTSLIMADPENFDRYGFSKKGYFISQEEYDKWWTEYNRYTERRKKKWENFLLKNKIELHNDNPLVYPARTDELSKFVRKGIPAEWRGNAWWYFAGGQRQLDANVGVYDRLKSDCREGAVSGKDMEAIERDLYRTFPDNIHFHKESFQNGEPAIIRSLRRVLMAFSVYDKTIGYCQSMNFLVGLLLLFMEEEKAFWMLVIITGKYLPGVYESDLEGANVDQGVLVLCIKEYLPEIWSHIESSYMNGNGSTDQISGPASGEEYLCRLPTLTLCTASWFMSCFVGVVPIETTLRIWDCLFYEESHFLFKVALGILKLSESEFLESKSQKLFRQYSSYTFGGSNDSDSTFKRLKNKIKTQEEADMEILQVIQNFPKRLLNPNDIFEKVLMKKKVALNGITQEKIDRGREYVAMARNRQRASSRPKERRK | no binding | –
